In assay [1] the target is early growth response 2 (EGR2) (rat (endogenous in primary rat Schwann cells)) (UniProt P51774). The experiment in a line: co-IP; as a3, anti-EGR2 immunoprecipitate blotted for NEDD8, cells treated with db cAMP and MLN4924.
For assay [2] the target is unchanged. Put plainly: co-IP; endogenous proteins from primary rat Schwann cells treated with db cAMP, NP-40 lysis buffer; anti-NEDD8 immunoprecipitate blotted for EGR2 and anti-EGR2 immunoprecipitate blotted for NEDD8; antibodies cross-linked to beads, overnight at 4°C; cells with or without MLN4924.
Assay [3] deals with NEDD8 (rat (endogenous in primary rat Schwann cells)) (UniProt Q71UE8). The assay is described as above.

No constants are given. Whether binding was seen depends on the method and setting. In cells and extracts the contact can be indirect. Some entries that bind do so weakly or less than the wild type.

Regarding NEDD8 (from UniProt Q71UE8 1-76), the binding result in assay [1] is on record as “no binding (condition: cells treated with MLN4924)”; in assay [2], “binds”.

In the case of “early growth response 2 (EGR2) (from UniProt P51774 1-470)”, in assay [3], the binding entry is recorded as “binds”.

For the origin of these results see publication PMC11014456.
